Assay results taken from the supplement of paper PMC10331698.
± gives the standard deviation of the averaged measurements. Most values lie at the level of the controls, where differences are scatter.

Legend:
Assay in all cases: level (log10 ratio to DMSO vehicle control); higher = higher biomarker level / cell amount than vehicle control
[1] = compound: C=C(C)C(=O)OCCC(F)(F)C(F)(F)C(F)(F)C(F)(F)C(F)(F)C(F)(F)F [6:2 Fluorotelomer methacrylate] (in DMSO); conditions: 2200 nM
Protocol: (§1)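 BioMAP Diversity Plus panel of 12 human primary cell co-culture systems (3C, 4H, LPS, SAg, BT, BF4T, BE3C, CASM3C, HDF3CGF, KF3CT, MyoF, Mphg). Compounds were added 1 h before stimulation and left for 24 h (MyoF 48 h; BT 72 h for soluble read-outs or 6 d for IgG). Biomarkers were read by ELISA, cytotoxicity by SRB, PBMC viability and proliferation by Alamar Blue. Each well value was divided by the mean of 8 DMSO control wells on the same plate and log10 transformed; duplicate blinded samples were tested at 4 concentrations.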

[2] = compound: CNS(=O)(=O)C(F)(F)C(F)(F)C(F)(F)C(F)(F)C(F)(F)C(F)(F)C(F)(F)C(F)(F)F [N-Methylperfluorooctanesulfonamide] (in DMSO); conditions: 2200 nM
Protocol: as §1

[3] = compound: FC(F)(F)C(F)(F)C(F)(F)C(F)(F)CCI [1H,1H,2H,2H-Perfluorohexyl iodide] (in DMSO); conditions: 2200 nM
Protocol: as §1

[4] = compound: FC(F)(F)C(F)(F)CNCC(F)(F)C(F)(F)F [Bis(1H,1H-perfluoropropyl)amine] (in DMSO); conditions: 2200 nM
Protocol: as §1

[5] = compound: FC(F)(F)COC(OCC(F)(F)F)OCC(F)(F)F [tris(Trifluoroethoxy)methane] (in DMSO); conditions: 2200 nM
Protocol: as §1

Hexafluoroglutaric acid = compound: O=C(O)C(F)(F)C(F)(F)C(F)(F)C(=O)O [Hexafluoroglutaric acid] (in DMSO)
Protocol: as §1

Perfluorohexanoic acid = compound: O=C(O)C(F)(F)C(F)(F)C(F)(F)C(F)(F)C(F)(F)F [Perfluorohexanoic acid] (in DMSO)
Protocol: as §1

[6] = compound: O=C(O)C(F)(F)C(F)(F)C(F)(F)OC(F)(C(F)(F)F)C(F)(F)F [Perfluoro-4-isopropoxybutanoic acid] (in DMSO); conditions: 2200 nM
Protocol: as §1

[7] = compound: O=C(O)C(F)(OC(F)(F)C(F)(F)C(F)(F)F)C(F)(F)F [Ammonium perfluoro-2-methyl-3-oxahexanoate] (in Water)
Protocol: as §1

[8] = compound: O=C(O)C(F)(OC(F)(F)C(F)(OC(F)(F)C(F)(OC(F)(F)C(F)(F)C(F)(F)F)C(F)(F)F)C(F)(F)F)C(F)(F)F [Perfluoro-(2,5,8-trimethyl-3,6,9-trioxadodecanoic)acid] (in DMSO); conditions: 370 nM
Protocol: as §1

[9] = compound: O=C(O)CCC(F)(F)C(F)(F)C(F)(F)F [3:3 Fluorotelomer carboxylic acid] (in DMSO); conditions: 2200 nM
Protocol: as §1

[10] = compound: O=S(=O)(O)C(F)(F)C(F)(F)C(F)(F)C(F)(F)F [Perfluorobutanesulfonic acid] (in DMSO)
Protocol: as §1

[11] = compound: OCC(F)(F)C(F)(F)C(F)(F)C(F)(F)C(F)(F)C(F)(F)CO [1H,1H,8H,8H-Perfluorooctane-1,8-diol] (in DMSO); conditions: 2200 nM
Protocol: as §1

[12] = compound: OCC(F)(F)C(F)(F)C(F)(F)C(F)(F)C(F)(F)C(F)(F)F [6:1 Fluorotelomer alcohol] (in DMSO); conditions: 2200 nM
Protocol: as §1

[13] = compound: OCC(F)(F)C(F)(F)C(F)(F)C(F)F [1H,1H,5H-Perfluoropentanol] (in DMSO); conditions: 2200 nM
Protocol: as §1

[14] = compound: OCC(F)(F)OC(F)(F)C(F)(F)OC(F)(F)CO [1H,1H,8H,8H-Perfluoro-3,6-dioxaoctane-1,8-diol] (in DMSO); conditions: 2200 nM
Protocol: as §1

[15] = compound: OCCCC(F)(F)C(F)(F)C(F)(F)C(F)(F)C(F)(F)C(F)(F)C(F)(F)C(F)(F)F [3-(Perfluorooctyl)propanol] (in DMSO); conditions: 2200 nM
Protocol: as §1

Test System | level (log10) [1] | level (log10) [2] | level (log10) [3] | level (log10) [4] | level (log10) [5] | level (log10) (Hexafluoroglutaric acid; 2200 nM) | level (log10) (Hexafluoroglutaric acid; 6700 nM) | level (log10) (Hexafluoroglutaric acid; 20000 nM) | level (log10) (Hexafluoroglutaric acid; 60000 nM) | level (log10) (Perfluorohexanoic acid; 2200 nM) | level (log10) (Perfluorohexanoic acid; 6700 nM) | level (log10) (Perfluorohexanoic acid; 20000 nM) | level (log10) (Perfluorohexanoic acid; 60000 nM) | level (log10) [6] | level (log10) ([7]; 2200 nM) | level (log10) ([7]; 6700 nM) | level (log10) ([7]; 20000 nM) | level (log10) ([7]; 60000 nM) | level (log10) [8] | level (log10) [9] | level (log10) ([10]; 2200 nM) | level (log10) ([10]; 6700 nM) | level (log10) ([10]; 20000 nM) | level (log10) ([10]; 60000 nM) | level (log10) [11] | level (log10) [12] | level (log10) [13] | level (log10) [14] | level (log10) [15]
SAg:CD62E/E-Selectin | 0.011 ± 0.013 | -0.005 ± 0.0014 | -0.005 ± 0.031 | 0.0105 ± 0.011 | 0.01 ± 0.042 | -0.0015 ± 0.036 | -0.004 ± 0.033 | -0.008 ± 0.052 | -0.0025 ± 0.0078 | 0.021 ± 0.047 | 0.001 ± 0.018 | -0.01 ± 0.023 | 0.0195 ± 0.005 | 0.009 ± 0.014 | 0.058 ± 0.0099 | 0.036 ± 0.0014 | 0.022 ± 0.013 | 0.057 ± 0.0028 | -0.0045 ± 0.0078 | -0.0165 ± 0.0078 | -0.0245 ± 0.018 | -0.0045 ± 0.005 | -0.008 ± 0.0085 | -0.001 ± 0.024 | 0.017 ± 0.0071 | 0.025 ± 0.014 | 0.021 ± 0.0085 | -0.0155 ± 0.026 | -0.007 ± 0.04
CASM3C:CD141/Thrombomodulin | 0.0185 ± 0.079 | 0.02 ± 0.069 | 0.0105 ± 0.043 | 0 ± 0.0085 | -0.0235 ± 0.018 | 0.0155 ± 0.026 | -0.008 ± 0.0099 | -0.0175 ± 0.0021 | 0.043 ± 0.065 | -0.0055 ± 0.019 | 0.021 ± 0.021 | -0.0105 ± 0.021 | 0.0005 ± 0.044 | 0.0255 ± 0.033 | 0.0125 ± 0.025 | 0.113 ± 0.0057 | 0.0435 ± 0.11 | 0.035 ± 0.038 | 0.011 ± 0.024 | 0.003 ± 0.011 | -0.0235 ± 0.005 | 0.01 ± 0.028 | -0.0095 ± 0.016 | 0.0075 ± 0.016 | -0.0205 ± 0.005 | 0.0065 ± 0.011 | -0.001 ± 0.075 | 0.014 ± 0.027 | -0.018 ± 0.041
3C:CD62E/E-Selectin | -0.027 ± 0.013 | 0.002 ± 0.028 | -0.0105 ± 0.028 | 0.001 ± 0.0057 | -0.0085 ± 0.021 | -0.002 ± 0.059 | -0.0035 ± 0.053 | -0.002 ± 0.038 | 0.031 ± 0.014 | 0.015 ± 0.018 | -0.0065 ± 0.0092 | -0.007 ± 0.011 | 0.0145 ± 0.029 | -0.013 ± 0.038 | 0.0055 ± 0.021 | 0.0025 ± 0.005 | 0.0105 ± 0.011 | 0.011 ± 0.011 | -0.0015 ± 0.029 | -0.009 ± 0.018 | -0.0085 ± 0.0021 | -0.0165 ± 0.022 | -0.008 ± 0.021 | 0.0045 ± 0.021 | 0.008 ± 0.024 | 0 ± 0.041 | 0.0015 ± 0.035 | -0.01 ± 0.013 | 0.0045 ± 0.016
BT:sIL-17A | -0.036 ± 0.1 | 0.06 ± 0.016 | -0.023 ± 0.065 | -0.056 ± 0.19 | -0.166 ± 0.016 | 0.035 ± 0.25 | 0.02 ± 0.073 | -0.0205 ± 0.21 | -0.0585 ± 0.12 | -0.201 ± 0.097 | 0.009 ± 0.22 | 0.038 ± 0.075 | -0.086 ± 0.068 | 0.0025 ± 0.016 | -0.232 ± 0.15 | 0.001 ± 0.02 | 0.036 ± 0.037 | -0.174 ± 0.096 | -0.0845 ± 0.032 | -0.0945 ± 0.08 | -0.0075 ± 0.11 | -0.0215 ± 0.14 | 0.157 ± 0.016 | 0.021 ± 0.2 | -0.04 ± 0.076 | -0.233 ± 0.033 | -0.025 ± 0.26 | 0.06 ± 0.17 | -0.041 ± 0.0042
MyoF:alpha-SM Actin | -0.001 | 0.004 ± 0.025 | 0.019 ± 0.0071 | 0.0235 ± 0.029 | 0.015 ± 0.021 | -0.0185 ± 0.018 | -0.008 ± 0.044 | -0.0065 ± 0.029 | 0.033 ± 0.017 | 0.0335 ± 0.011 | -0.021 ± 0.016 | 0.011 ± 0.0099 | 0.013 ± 0.037 | 0.0045 ± 0.012 | 0.0105 ± 0.005 | 0.001 ± 0.011 | 0.0005 ± 0.022 | -0.0035 ± 0.0035 | 0.021 ± 0.047 | 0.0025 ± 0.0021 | 0.012 | -0.016 ± 0.0099 | -0.0265 ± 0.0078 | -0.0195 ± 0.005 | 0.0105 ± 0.00071 | 0.0225 ± 0.015 | -0.039 ± 0.059 | -0.003 ± 0.0042 | 0.0075 ± 0.015
3C:CD106/VCAM-1 | -0.013 ± 0.03 | -0.01 ± 0.018 | 0.013 ± 0.0099 | -0.009 ± 0.025 | -0.0115 ± 0.013 | 0.0095 ± 0.0078 | 0.009 ± 0.018 | 0.004 ± 0.021 | -0.008 ± 0.0057 | 0.0115 ± 0.005 | -0.002 ± 0.018 | -0.0025 ± 0.029 | 0.005 ± 0.044 | -0.012 ± 0.023 | -0.0065 ± 0.0078 | -0.0065 ± 0.0035 | -0.0245 ± 0.0035 | -0.0155 ± 0.00071 | 0.003 ± 0.052 | -0.009 ± 0.025 | -0.0205 ± 0.023 | -0.0215 ± 0.015 | -0.016 ± 0.025 | -0.006 ± 0.013 | -0.011 ± 0.0014 | 0.001 ± 0.035 | -0.0035 ± 0.023 | -0.001 ± 0.018 | -0.017 ± 0.0014
KF3CT:CD54/ICAM-1 | 0.0075 ± 0.015 | 0.018 ± 0.045 | 0.0095 ± 0.0078 | -0.002 ± 0.02 | -0.001 ± 0.025 | -0.017 ± 0.0071 | -0.0045 ± 0.00071 | -0.014 ± 0.0057 | -0.0015 ± 0.044 | -0.002 ± 0.035 | 0.0055 ± 0.0064 | -0.002 ± 0.013 | -0.007 ± 0.011 | 0.009 ± 0.014 | 0.012 ± 0.0014 | 0.022 ± 0.0099 | 0.029 ± 0.0071 | 0.017 ± 0.0057 | 0.0145 ± 0.00071 | 0.002 ± 0.023 | 0.015 ± 0.028 | 0.0015 ± 0.029 | 0.0225 ± 0.012 | 0.0005 ± 0.00071 | -0.001 ± 0.038 | 0.0005 ± 0.021 | 0.0235 ± 0.019 | 0.015 ± 0.014 | -0.019 ± 0.038
